Compound in the assay: Nc1nc2c(ncn2[C@@H]2O[C@H](COP(=O)(O)OP(=O)(O)OP(=O)(O)O)[C@@H](O)[C@H]2O)c(=O)[nH]1 [guanosine triphosphate]
Briefly: NP40-soluble protein abundance relative to vehicle (solubility fold change) (ratio); higher = more soluble protein in presence of GTP. The method in brief: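 Jurkat crude lysate prepared with a Dounce homogeniser was treated at eight concentrations spanning 0.1 to 10 mM, 10 min at room temperature then 3 min at 37 °C. Solubilisation with 0.8% NP40 and benzonase and ultracentrifugation preceded TMT labelling of the supernatant for LC-MS/MS. Fold change against the detergent-processed vehicle was determined per replicate from vsn-normalised intensities, across three independent experiments.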

Sequences of proteins named here, by UniProt entry; tags and fusion partners are left off. A change or cut given only in a name is not applied to a line headed by its entry.
UniProt Q9P2I0: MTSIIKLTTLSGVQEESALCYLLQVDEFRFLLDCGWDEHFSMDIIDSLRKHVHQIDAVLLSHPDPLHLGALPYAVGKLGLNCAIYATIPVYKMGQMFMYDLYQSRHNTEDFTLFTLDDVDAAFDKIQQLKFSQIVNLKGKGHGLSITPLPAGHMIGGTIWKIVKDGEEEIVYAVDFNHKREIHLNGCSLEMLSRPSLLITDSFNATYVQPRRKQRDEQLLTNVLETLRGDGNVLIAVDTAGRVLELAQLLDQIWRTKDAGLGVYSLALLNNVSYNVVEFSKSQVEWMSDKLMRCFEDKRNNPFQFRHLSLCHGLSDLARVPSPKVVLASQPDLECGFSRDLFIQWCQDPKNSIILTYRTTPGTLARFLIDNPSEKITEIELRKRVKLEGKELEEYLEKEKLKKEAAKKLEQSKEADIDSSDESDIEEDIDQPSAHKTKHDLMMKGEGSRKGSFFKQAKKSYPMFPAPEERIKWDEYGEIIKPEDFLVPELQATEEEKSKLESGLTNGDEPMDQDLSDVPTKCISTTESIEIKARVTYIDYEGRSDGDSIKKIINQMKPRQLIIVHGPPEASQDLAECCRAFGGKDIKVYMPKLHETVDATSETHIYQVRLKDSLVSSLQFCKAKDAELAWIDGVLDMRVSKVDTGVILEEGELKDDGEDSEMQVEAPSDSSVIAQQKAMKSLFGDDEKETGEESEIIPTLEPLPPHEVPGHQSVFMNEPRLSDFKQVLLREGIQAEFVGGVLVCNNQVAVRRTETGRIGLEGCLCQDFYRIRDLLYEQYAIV
UniProt Q9P032: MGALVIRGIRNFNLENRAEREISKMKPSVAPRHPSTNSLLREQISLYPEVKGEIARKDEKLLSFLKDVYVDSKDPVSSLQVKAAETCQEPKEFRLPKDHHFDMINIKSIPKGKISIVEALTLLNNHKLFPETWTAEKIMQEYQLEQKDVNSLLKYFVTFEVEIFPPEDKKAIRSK
UniProt Q9NZZ3: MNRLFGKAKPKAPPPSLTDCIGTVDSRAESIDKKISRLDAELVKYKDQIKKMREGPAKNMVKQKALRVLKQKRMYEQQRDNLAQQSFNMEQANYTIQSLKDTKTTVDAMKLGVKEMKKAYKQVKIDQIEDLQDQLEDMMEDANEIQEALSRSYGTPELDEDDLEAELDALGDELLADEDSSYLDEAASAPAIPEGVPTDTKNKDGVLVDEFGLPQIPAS
UniProt Q9NYP7: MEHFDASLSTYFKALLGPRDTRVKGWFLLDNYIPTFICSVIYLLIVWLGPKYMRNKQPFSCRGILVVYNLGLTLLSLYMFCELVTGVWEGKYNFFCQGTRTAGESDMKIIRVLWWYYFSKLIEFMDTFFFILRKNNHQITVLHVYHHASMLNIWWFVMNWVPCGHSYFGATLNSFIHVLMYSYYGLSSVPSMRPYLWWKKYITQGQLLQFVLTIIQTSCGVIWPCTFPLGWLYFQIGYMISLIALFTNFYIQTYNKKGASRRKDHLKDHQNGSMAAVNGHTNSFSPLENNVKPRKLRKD
UniProt Q9UKG1: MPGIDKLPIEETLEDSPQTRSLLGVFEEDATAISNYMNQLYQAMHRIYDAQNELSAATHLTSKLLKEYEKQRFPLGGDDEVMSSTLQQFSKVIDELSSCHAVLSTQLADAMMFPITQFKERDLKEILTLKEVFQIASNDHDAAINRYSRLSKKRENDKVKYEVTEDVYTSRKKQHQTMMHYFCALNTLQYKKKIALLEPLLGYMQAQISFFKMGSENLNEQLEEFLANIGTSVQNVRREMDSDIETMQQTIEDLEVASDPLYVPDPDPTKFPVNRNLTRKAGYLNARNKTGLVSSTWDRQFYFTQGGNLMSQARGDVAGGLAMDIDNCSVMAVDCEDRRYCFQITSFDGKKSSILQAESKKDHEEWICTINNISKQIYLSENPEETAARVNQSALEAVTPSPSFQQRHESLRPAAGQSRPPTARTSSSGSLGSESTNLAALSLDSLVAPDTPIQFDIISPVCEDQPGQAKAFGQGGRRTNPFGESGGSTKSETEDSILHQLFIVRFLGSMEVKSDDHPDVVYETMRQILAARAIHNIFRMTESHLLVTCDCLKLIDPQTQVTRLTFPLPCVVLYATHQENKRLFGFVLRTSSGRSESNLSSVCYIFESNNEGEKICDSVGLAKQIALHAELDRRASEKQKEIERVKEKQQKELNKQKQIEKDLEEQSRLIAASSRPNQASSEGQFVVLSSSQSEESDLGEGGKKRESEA
UniProt Q9NXA8: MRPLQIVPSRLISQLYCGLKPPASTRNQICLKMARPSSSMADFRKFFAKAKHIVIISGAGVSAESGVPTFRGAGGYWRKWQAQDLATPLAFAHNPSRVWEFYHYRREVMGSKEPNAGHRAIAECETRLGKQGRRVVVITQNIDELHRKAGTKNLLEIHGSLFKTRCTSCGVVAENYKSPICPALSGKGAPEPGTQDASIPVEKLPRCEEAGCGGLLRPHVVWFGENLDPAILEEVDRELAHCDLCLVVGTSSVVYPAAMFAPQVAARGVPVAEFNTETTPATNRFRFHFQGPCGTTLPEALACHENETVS
UniProt Q9UKU7: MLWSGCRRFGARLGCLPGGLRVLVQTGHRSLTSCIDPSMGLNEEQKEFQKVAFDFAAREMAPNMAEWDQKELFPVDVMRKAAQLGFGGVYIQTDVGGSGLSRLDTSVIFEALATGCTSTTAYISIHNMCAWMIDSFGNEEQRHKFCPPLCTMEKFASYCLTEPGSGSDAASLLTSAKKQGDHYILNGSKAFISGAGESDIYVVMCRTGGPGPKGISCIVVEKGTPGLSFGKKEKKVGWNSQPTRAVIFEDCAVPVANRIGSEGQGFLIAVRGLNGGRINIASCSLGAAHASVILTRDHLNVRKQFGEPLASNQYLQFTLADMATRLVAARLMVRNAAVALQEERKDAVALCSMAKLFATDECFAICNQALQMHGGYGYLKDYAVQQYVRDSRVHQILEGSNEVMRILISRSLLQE
UniProt Q9NX24: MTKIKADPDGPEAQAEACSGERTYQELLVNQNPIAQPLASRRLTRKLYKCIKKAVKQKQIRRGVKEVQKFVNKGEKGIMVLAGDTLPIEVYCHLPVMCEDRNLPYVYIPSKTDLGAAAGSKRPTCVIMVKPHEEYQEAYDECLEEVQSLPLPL
UniProt Q9NUP9: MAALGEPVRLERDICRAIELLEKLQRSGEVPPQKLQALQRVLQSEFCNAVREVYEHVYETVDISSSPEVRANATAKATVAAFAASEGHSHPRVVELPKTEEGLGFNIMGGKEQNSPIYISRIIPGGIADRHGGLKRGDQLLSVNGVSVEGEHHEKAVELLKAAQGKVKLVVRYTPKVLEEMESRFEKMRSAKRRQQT
UniProt Q9P0I2: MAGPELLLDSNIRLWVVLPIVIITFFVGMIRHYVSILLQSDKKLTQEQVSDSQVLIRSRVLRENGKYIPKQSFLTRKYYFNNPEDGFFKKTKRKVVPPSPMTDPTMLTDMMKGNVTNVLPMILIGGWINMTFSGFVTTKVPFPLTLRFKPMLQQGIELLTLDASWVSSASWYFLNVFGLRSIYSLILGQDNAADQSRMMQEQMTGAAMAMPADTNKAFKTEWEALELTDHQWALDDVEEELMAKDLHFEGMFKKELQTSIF
UniProt Q9NXV2: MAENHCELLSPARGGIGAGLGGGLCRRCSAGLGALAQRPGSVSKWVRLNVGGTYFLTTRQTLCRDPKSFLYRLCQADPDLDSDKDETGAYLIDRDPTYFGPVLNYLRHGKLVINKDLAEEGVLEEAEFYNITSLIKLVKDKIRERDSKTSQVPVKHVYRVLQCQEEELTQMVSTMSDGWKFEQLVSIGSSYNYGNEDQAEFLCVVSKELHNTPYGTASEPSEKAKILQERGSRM
UniProt Q9UBT6: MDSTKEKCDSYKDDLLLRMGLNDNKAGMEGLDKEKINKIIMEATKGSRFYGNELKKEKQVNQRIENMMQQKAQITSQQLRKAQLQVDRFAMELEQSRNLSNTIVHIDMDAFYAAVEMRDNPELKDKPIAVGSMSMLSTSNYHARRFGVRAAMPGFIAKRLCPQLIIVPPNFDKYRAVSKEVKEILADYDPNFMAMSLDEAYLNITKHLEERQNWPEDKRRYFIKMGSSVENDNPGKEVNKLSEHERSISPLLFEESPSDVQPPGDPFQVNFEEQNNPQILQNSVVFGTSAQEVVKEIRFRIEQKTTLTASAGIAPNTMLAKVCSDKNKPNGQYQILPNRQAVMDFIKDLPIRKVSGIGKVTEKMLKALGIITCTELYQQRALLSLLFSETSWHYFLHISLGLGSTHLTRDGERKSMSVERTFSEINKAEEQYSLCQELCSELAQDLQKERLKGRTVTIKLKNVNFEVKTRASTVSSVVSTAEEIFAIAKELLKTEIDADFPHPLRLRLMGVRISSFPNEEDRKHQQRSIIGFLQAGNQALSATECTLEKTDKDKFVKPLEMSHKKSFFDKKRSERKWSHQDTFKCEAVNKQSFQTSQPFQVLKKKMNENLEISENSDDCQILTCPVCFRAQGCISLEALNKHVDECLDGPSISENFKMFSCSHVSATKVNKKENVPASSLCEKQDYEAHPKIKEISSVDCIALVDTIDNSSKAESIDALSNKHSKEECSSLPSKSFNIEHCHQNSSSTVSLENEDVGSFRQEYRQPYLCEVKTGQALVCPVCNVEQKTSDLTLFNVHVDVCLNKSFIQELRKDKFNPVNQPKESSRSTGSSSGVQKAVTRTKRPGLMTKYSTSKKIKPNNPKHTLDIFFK
UniProt Q9NVK5: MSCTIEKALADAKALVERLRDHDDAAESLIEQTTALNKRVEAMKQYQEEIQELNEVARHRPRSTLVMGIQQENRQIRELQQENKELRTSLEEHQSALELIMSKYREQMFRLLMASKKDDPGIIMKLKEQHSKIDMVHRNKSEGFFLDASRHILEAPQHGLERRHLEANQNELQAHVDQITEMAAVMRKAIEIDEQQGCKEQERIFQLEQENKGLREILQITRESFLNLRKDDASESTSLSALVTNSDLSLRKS
UniProt Q9NVH1: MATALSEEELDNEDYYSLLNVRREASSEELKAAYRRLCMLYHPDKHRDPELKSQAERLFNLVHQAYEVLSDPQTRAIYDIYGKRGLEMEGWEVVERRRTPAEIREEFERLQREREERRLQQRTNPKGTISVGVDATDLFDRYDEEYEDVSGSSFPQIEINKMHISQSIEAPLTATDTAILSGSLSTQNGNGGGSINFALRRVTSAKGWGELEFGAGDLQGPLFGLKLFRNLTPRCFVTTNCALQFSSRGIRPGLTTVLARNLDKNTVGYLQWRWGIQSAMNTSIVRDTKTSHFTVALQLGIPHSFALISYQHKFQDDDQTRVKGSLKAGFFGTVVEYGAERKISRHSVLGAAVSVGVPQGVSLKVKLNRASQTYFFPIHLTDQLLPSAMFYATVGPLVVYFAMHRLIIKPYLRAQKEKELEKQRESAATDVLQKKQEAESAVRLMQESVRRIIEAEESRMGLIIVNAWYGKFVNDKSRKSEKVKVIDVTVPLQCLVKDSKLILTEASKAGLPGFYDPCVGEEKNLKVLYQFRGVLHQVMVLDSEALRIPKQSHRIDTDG

± gives the standard deviation of the averaged measurements. This is one part of the list.

For CPSF2 (UniProt Q9P2I0), the NP40-soluble protein abundance reads like this: (concentration: 0.1mM) 1.04 ± 0.047; (concentration: 0.5mM) 1.09 ± 0.054; (concentration: 1mM) 1.09 ± 0.083; (concentration: 2mM) 1.16 ± 0.087; (concentration: 4mM) 1.19 ± 0.13; (concentration: 6mM) 1.21 ± 0.13. Besides, the NP40-soluble protein abundance reads like this: (concentration: 8mM) 1.21 ± 0.14; (concentration: 10mM) 1.19 ± 0.092.

For UniProt Q9P032, the NP40-soluble protein abundance is, setting by setting: (concentration: 0.1mM) 0.894 ± 0.043; (concentration: 0.5mM) 0.877 ± 0.026; (concentration: 1mM) 0.944 ± 0.092; (concentration: 2mM) 0.956 ± 0.047; (concentration: 4mM) 0.907 ± 0.064; (concentration: 6mM) 0.936 ± 0.061. Further, the NP40-soluble protein abundance by setting is: (concentration: 8mM) 0.902 ± 0.099; (concentration: 10mM) 1.06 ± 0.11.

As to CHMP5 (UniProt Q9NZZ3), the NP40-soluble protein abundance (concentration: 0.1mM) turned out to be 0.966 ± 0.082; the NP40-soluble protein abundance (concentration: 0.5mM) was 0.946 ± 0.034; the NP40-soluble protein abundance (concentration: 1mM) worked out at 0.977 ± 0.056; the NP40-soluble protein abundance (concentration: 2mM) was determined as 0.943 ± 0.018; the NP40-soluble protein abundance (concentration: 4mM) stood at 0.844 ± 0.065; the NP40-soluble protein abundance (concentration: 6mM) is 0.896 ± 0.091. In addition, the NP40-soluble protein abundance (concentration: 8mM) came to 1.02 ± 0.03 and the NP40-soluble protein abundance (concentration: 10mM) turned out to be 1.06 ± 0.046.

As to UniProt Q9NYP7 and related entries, the NP40-soluble protein abundance came out at 1.07 ± 0.022 (concentration: 0.1mM); 1.06 ± 0.054 (concentration: 0.5mM); 0.894 ± 0.082 (concentration: 1mM); 0.917 ± 0.088 (concentration: 2mM); 0.897 ± 0.065 (concentration: 4mM); 0.917 ± 0.079 (concentration: 6mM). The NP40-soluble protein abundance by setting is: (concentration: 8mM) 0.87 ± 0.063; (concentration: 10mM) 0.817 ± 0.063.

As to APPL1 (UniProt Q9UKG1), the NP40-soluble protein abundance runs as follows: (concentration: 0.1mM) 1 ± 0.031; (concentration: 0.5mM) 1.01 ± 0.035; (concentration: 1mM) 0.955 ± 0.019; (concentration: 2mM) 0.963 ± 0.0096; (concentration: 4mM) 0.959 ± 0.025; (concentration: 6mM) 0.929 ± 0.02. Moreover, the NP40-soluble protein abundance worked out at 0.95 ± 0.022 (concentration: 8mM) and 0.899 ± 0.046 (concentration: 10mM).

As to UniProt Q9NXA8 and related entries, the NP40-soluble protein abundance by setting is: (concentration: 0.1mM) 1.09 ± 0.043; (concentration: 0.5mM) 1.04 ± 0.0073; (concentration: 1mM) 0.978 ± 0.011; (concentration: 2mM) 0.977 ± 0.052; (concentration: 4mM) 0.993 ± 0.1; (concentration: 6mM) 1.01 ± 0.11. For the same target, the NP40-soluble protein abundance turned out to be 1.01 ± 0.08 (concentration: 8mM) and 0.959 ± 0.047 (concentration: 10mM).

With ACAD8 (UniProt Q9UKU7), the NP40-soluble protein abundance is 1.03 ± 0.064 (concentration: 0.1mM); 1.02 ± 0.044 (concentration: 0.5mM); 0.932 ± 0.011 (concentration: 1mM); 0.968 ± 0.064 (concentration: 2mM); 0.96 ± 0.022 (concentration: 4mM); 0.948 ± 0.037 (concentration: 6mM). Besides, the NP40-soluble protein abundance was determined as 0.935 ± 0.014 (concentration: 8mM) and 0.905 ± 0.046 (concentration: 10mM).

Turning to NHP2 (UniProt Q9NX24), the NP40-soluble protein abundance reads like this: (concentration: 0.1mM) 0.959 ± 0.056; (concentration: 0.5mM) 0.942 ± 0.054; (concentration: 1mM) 1.02 ± 0.069; (concentration: 2mM) 1.09 ± 0.067; (concentration: 4mM) 1.2 ± 0.096; (concentration: 6mM) 1.39 ± 0.16. For the same target, the NP40-soluble protein abundance was determined as 1.45 ± 0.16 (concentration: 8mM) and 1.75 ± 0.35 (concentration: 10mM).

Turning to UniProt Q9NUP9, the NP40-soluble protein abundance is, setting by setting: (concentration: 0.1mM) 0.888 ± 0.1; (concentration: 0.5mM) 0.848 ± 0.078; (concentration: 1mM) 1.01 ± 0.11; (concentration: 2mM) 1.01 ± 0.017; (concentration: 4mM) 1.02 ± 0.077; (concentration: 6mM) 0.967 ± 0.062. The NP40-soluble protein abundance was 0.929 ± 0.1 (concentration: 8mM) and 1.06 ± 0.09 (concentration: 10mM).

As for UniProt Q9P0I2, the NP40-soluble protein abundance was 1.02 ± 0.03 (concentration: 0.1mM); 1.04 ± 0.026 (concentration: 0.5mM); 1.02 ± 0.04 (concentration: 1mM); 1.03 ± 0.063 (concentration: 2mM); 1 ± 0.046 (concentration: 4mM); 1.01 ± 0.039 (concentration: 6mM). Moreover, the NP40-soluble protein abundance is, setting by setting: (concentration: 8mM) 0.982 ± 0.014; (concentration: 10mM) 0.971 ± 0.023.

Turning to KCTD5 (UniProt Q9NXV2), the NP40-soluble protein abundance runs as follows: (concentration: 0.1mM) 0.981 ± 0.032; (concentration: 0.5mM) 0.964 ± 0.027; (concentration: 1mM) 0.973 ± 0.021; (concentration: 2mM) 0.95 ± 0.041; (concentration: 4mM) 0.96 ± 0.052; (concentration: 6mM) 0.996 ± 0.025. Moreover, the NP40-soluble protein abundance is, setting by setting: (concentration: 8mM) 0.958 ± 0.031; (concentration: 10mM) 0.938 ± 0.042.

Consider UniProt Q9UBT6 and related entries, for which the NP40-soluble protein abundance (concentration: 0.1mM) turned out to be 0.98 ± 0.082; the NP40-soluble protein abundance (concentration: 0.5mM) turned out to be 0.97 ± 0.03; the NP40-soluble protein abundance (concentration: 1mM) worked out at 0.95 ± 0.017; the NP40-soluble protein abundance (concentration: 2mM) turned out to be 0.979 ± 0.057; the NP40-soluble protein abundance (concentration: 4mM) was determined as 1.01 ± 0.068; the NP40-soluble protein abundance (concentration: 6mM) was determined as 0.962 ± 0.04. Also, the NP40-soluble protein abundance by setting is: (concentration: 8mM) 1.04 ± 0.075; (concentration: 10mM) 1.07 ± 0.067.

With UniProt Q9NVK5 and related entries, the NP40-soluble protein abundance by setting is: (concentration: 0.1mM) 0.987 ± 0.072; (concentration: 0.5mM) 0.945 ± 0.1; (concentration: 1mM) 1.16 ± 0.17; (concentration: 2mM) 1.11 ± 0.086; (concentration: 4mM) 1.13 ± 0.1; (concentration: 6mM) 1.19 ± 0.092. In addition, the NP40-soluble protein abundance runs as follows: (concentration: 8mM) 1.28 ± 0.17; (concentration: 10mM) 1.27 ± 0.2.

In the case of UniProt Q9NVH1 and related entries, the NP40-soluble protein abundance was found to be 1.01 ± 0.016 (concentration: 0.1mM); 1 ± 0.032 (concentration: 0.5mM); 0.9534 ± 0.0044 (concentration: 1mM); 0.955 ± 0.047 (concentration: 2mM); 0.953 ± 0.043 (concentration: 4mM); 0.941 ± 0.045 (concentration: 6mM). The NP40-soluble protein abundance worked out at 0.96 ± 0.046 (concentration: 8mM) and 0.883 ± 0.043 (concentration: 10mM).

Take MRTO4 (UniProt Q9UKD2): the NP40-soluble protein abundance reads like this: (concentration: 0.1mM) 1.04 ± 0.025; (concentration: 0.5mM) 1.08 ± 0.059; (concentration: 1mM) 1 ± 0.035; (concentration: 2mM) 1.03 ± 0.02; (concentration: 4mM) 0.979 ± 0.06; (concentration: 6mM) 0.984 ± 0.037. Besides, the NP40-soluble protein abundance runs as follows: (concentration: 8mM) 0.966 ± 0.071; (concentration: 10mM) 0.95 ± 0.071.

The record behind these values is the supplement of paper PMC6411743.
